# Measurements: the supplement of paper PMC7125110
# ± gives the standard error. The uncertainty is large for many entries.
# B1: glmS ribozyme (parent)
# chain: AUAAAAGCGCCAGAACUACAGAAAUGUAGUUGACGAGGAGGAGGUUUAUCGAAUUUUCGGCGGAUGCCUCCAAA
# Variants of: B1
# Test: KM; higher = weaker cofactor use; RNA array
# Conditions: with glucosamine-6-phosphate
# Summary of the method: (§1)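 Tracking of barcoded ribozyme variants used a hybridised Cy3 probe at 37 °C, after in situ transcription by E. coli RNA polymerase on sequenced MiSeq chips. The flowed solution held 40 μM to 10 mM glucosamine-6-phosphate in HEPES/KCl/Mg(OAc)2 buffer, and imaging ran over ~14 h. kobs was taken from exponential decay fits of normalised per-tile medians, and kcat and KM from weighted Michaelis–Menten fits.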
row,Variant,KM
1,A15G U46C,1440 ± 680 µM
2,U30C A53U,1290 ± 540 µM
3,G29U A52C,96.2 ± 94 µM
4,U30A C58A,3870 ± 2900 µM
5,C50U C71U,917 ± 550 µM
6,G29C A39U,3800 ± 2000 µM
7,A39C U46C,2740 ± 280 µM
8,C16A G32U,6390 ± 1500 µM
9,G29A A53C,1010 ± 570 µM
10,G29A A53U,1320 ± 660 µM
11,G35C C50G,3630 ± 2100 µM
12,U30A U55A,1850 ± 740 µM
13,U30G C67A,1110 ± 570 µM
14,A14C C16U,922 ± 250 µM
15,U45A U47A,745 ± 370 µM
16,A15G A39C,4930 ± 2900 µM
17,G38A U49A C58U,862 ± 380 µM
18,A12U U30C A53C,555 ± 500 µM
19,A48U U65A,18200 ± 2300 µM
20,A48U U65C,622 ± 430 µM
21,U31A G41C,501 ± 200 µM
22,U31G C71U,3220 ± 1900 µM
23,A14G G41C,3070 ± 1800 µM
24,A15C C61U,5200 ± 4900 µM
25,A14C G32A,3200 ± 1700 µM

# An excerpt of the results above:
row,Variant,KM
17,G38A U49A C58U,862 ± 380 µM
18,A12U U30C A53C,555 ± 500 µM
19,A48U U65A,18200 ± 2300 µM

# The listing continues:

row,Variant,KM
1,A39U G59A,1080 ± 620 µM
2,U30A C70G,79.2 ± 67 µM
3,A53C C67G,493 ± 400 µM
4,A52G G62A,2360 ± 2000 µM
5,U45A C58G,4010 ± 2100 µM
6,A15U G32C,2550 ± 370 µM
7,G29A C70U,175 ± 120 µM
8,U46C U49G,817 ± 220 µM
9,A36C G63C,77.8 ± 46 µM
10,A36C C68U,56.7 ± 56 µM
11,A14G G40C,2750 ± 1400 µM
12,A14C G44A,197000 ± 56000 µM
13,A42U C71A,8200 ± 6200 µM
14,G40U U49G C71G,1730 ± 1600 µM
15,G43A C68U,209 ± 120 µM
16,G41U A42U,1210 ± 800 µM
17,G13A C70U,2410 ± 870 µM
18,U49G A64G,2620 ± 1500 µM
19,G13C U45G,1530 ± 810 µM
20,U47G A53G U57C C68U,2460 ± 2000 µM
21,A52G U55G,3170 ± 560 µM
22,G32A A39C,3190 ± 1300 µM
23,A14G U45C,772 ± 420 µM
24,C50G C61U,85.8 ± 53 µM
25,G44A G66A,1440 ± 840 µM

row,Variant,KM
1,A15U G38A C67A C68U,928 ± 690 µM
2,G29U C61G,2320 ± 1900 µM
3,C16A U47G,631 ± 230 µM
4,A14U G32C,3050 ± 580 µM
5,G37U U65G,1260 ± 500 µM
6,C16G U55A,2500 ± 1400 µM
7,U30G C58U,2000 ± 1100 µM
8,U45A G59U,20700 ± 10000 µM
9,A42G A53C,1540 ± 610 µM
10,A12U A42G,1430 ± 760 µM
11,G32A G37A,25600 ± 7300 µM
12,A14G G44A,3640 ± 2600 µM
13,G29A U30G,2240 ± 1200 µM
14,G37U U49A,312 ± 290 µM
15,G32A U56A,5360 ± 1600 µM
16,C16U A53G,1210 ± 760 µM
17,C16G A64G,2050 ± 1500 µM
18,U30C U69C,591 ± 210 µM
19,A12U G44U U47G,1390 ± 880 µM
20,A14G C71G,55.3 ± 55 µM
21,G38U A39G,2660 ± 1000 µM
22,A14G G32C A53U,5490 ± 3500 µM
23,G32A A53C,5930 ± 3600 µM
24,G32A A53U,2160 ± 1400 µM
25,A15G G66A,502 ± 320 µM

row,Variant,KM
1,C16G A36U C50G C68G,90.5 ± 86 µM
2,A15U C61U,14.9 ± 12 µM
3,A15U C61A,829 ± 70 µM
4,A42G A64G,1370 ± 520 µM
5,C16A U65C,654 ± 8.5 µM
6,A15C U56C,2470 ± 690 µM
7,A52G A64G,3690 ± 1500 µM
8,G29A U56C,3420 ± 2100 µM
9,G40C A64G,2650 ± 1700 µM
10,G43A U56G,3400 ± 58 µM
11,U45A C70A,1480 ± 1200 µM
12,A12U U47C,1790 ± 840 µM
13,U47G A53G,804 ± 250 µM
14,C16U G29A,660 ± 350 µM
15,U30A U47C C70G,970 ± 700 µM
16,G40A A42G,1900 ± 820 µM
17,A12U G59A,3140 ± 430 µM
18,U31A C50G U65C C67U,20.3 ± 19 µM
19,A15C A48U,2840 ± 1100 µM
20,G37A U54G,2900 ± 1600 µM
21,G35C U56A G59A,1090 ± 730 µM
22,U49C C70G,238 ± 180 µM
23,U31C A53G,1960 ± 740 µM
24,A12U G40U U45G,315 ± 160 µM
25,U45A C67U,2930 ± 1500 µM

# Five entries picked at random from the list so far, as already listed:
row,Variant,KM
4,A42G A64G,1370 ± 520 µM
3,A15U C61A,829 ± 70 µM
6,A15C U56C,2470 ± 690 µM
10,G43A U56G,3400 ± 58 µM
13,U47G A53G,804 ± 250 µM

# Later entries

row,Variant,KM
1,A14G G37U,1680 ± 470 µM
2,C50U U57C G63A,117 ± 69 µM
3,G13C A14C U45A,4580 ± 3400 µM
4,A15U U31G C71U,844 ± 430 µM
5,A14U A15G G43A,12500 ± 10000 µM
6,A15G G60U,171 ± 100 µM
7,A15U U69A,253 ± 250 µM
8,G32U U49G,1040 ± 820 µM
9,A48U C71U,1890 ± 590 µM
10,A14G G63U,1390 ± 800 µM
11,C34U G60A,18.1 ± 15 µM
12,G29A G32U,20700 ± 7600 µM
13,U47A C70G,103 ± 57 µM
14,A12U G13A,12100 ± 5800 µM
15,A42G U69G,112 ± 63 µM
16,A15C G44U,924 ± 540 µM
17,G43C A53G C68U,1790 ± 1100 µM
18,A42G U47G,1360 ± 750 µM
19,A42G U47A,490 ± 290 µM
20,A15U A53C,798 ± 600 µM
21,A33U C68U,769 ± 470 µM
22,U46C A52U,20200 ± 9900 µM
23,A39U A48G,2340 ± 1400 µM
24,A53C U55C,1150 ± 480 µM
25,U47C C70G,155 ± 95 µM

row,Variant,KM
1,A52U U54C,2570 ± 310 µM
2,U47G C67U,657 ± 480 µM
3,G44A U54C,8260 ± 990 µM
4,A48U U55C,2190 ± 650 µM
5,A39C C58U,740 ± 730 µM
6,A42G U57A,875 ± 480 µM
7,U30G A64C,4950 ± 1100 µM
8,U31G A33U,4090 ± 910 µM
9,C50G C71G,34.3 ± 19 µM
10,A42G A48G,13600 ± 2200 µM
11,A15C G51U,34.2 ± 33 µM
12,U30C G62U,50.7 ± 42 µM
13,G13C C16G,5230 ± 4100 µM
14,A14G U46C,579 ± 390 µM
15,G41A U46A,1480 ± 630 µM
16,U31C U46G,2730 ± 1900 µM
17,G41A A52G,1080 ± 780 µM
18,A15C G32C A53C,235 ± 150 µM
19,A15C C16A,2030 ± 1100 µM
20,G41A U45C,303 ± 140 µM
21,G38A G59C,37.4 ± 31 µM
22,A39C G43U,787 ± 540 µM
23,A33C A42G,5240 ± 1500 µM

# Part of the list above in a different format:
row	Variant	KM
1	A52U U54C	2570 ± 310 µM
2	U47G C67U	657 ± 480 µM
3	G44A U54C	8260 ± 990 µM
4	A48U U55C	2190 ± 650 µM
5	A39C C58U	740 ± 730 µM
6	A42G U57A	875 ± 480 µM
7	U30G A64C	4950 ± 1100 µM

# Variants of: B1
# Test: self-cleavage kobs at 160 uM GlcN6P; higher = faster cleavage; RNA array
# Conditions: with glucosamine-6-phosphate
# Summary of the method: as §1
row,Variant,self-cleavage kobs at 160 uM GlcN6P
1,U30C A53U,2.48e-05 ± 1.3e-05 s⁻¹
2,U45A C58G,3.87e-05 ± 3e-05 s⁻¹
3,A15U U69A,2.86e-05 ± 1.5e-05 s⁻¹
4,A12U G13A,2.31e-05 ± 1.6e-05 s⁻¹
5,U31C U46G,1.96e-05 ± 1.2e-05 s⁻¹
6,A33C A42G,1.85e-05 ± 1.8e-05 s⁻¹

# Variants of: B1
# Test: self-cleavage kobs at 640 uM GlcN6P; higher = faster cleavage; RNA array
# Conditions: with glucosamine-6-phosphate
# Summary of the method: as §1
row,Variant,self-cleavage kobs at 640 uM GlcN6P
1,C50U C71U,1.5e-05 ± 1.1e-05 s⁻¹
2,A48U U65C,1.9e-05 ± 1.8e-05 s⁻¹
3,A53C C67G,1.47e-05 ± 1.3e-05 s⁻¹
4,U45A C58G,3.61e-05 ± 1.9e-05 s⁻¹
5,A42U C71A,2.7e-05 ± 1.5e-05 s⁻¹
6,G13C A14C U45A,3.02e-05 ± 1.8e-05 s⁻¹
7,A39U A48G,1.37e-05 ± 1.2e-05 s⁻¹
8,G41A A52G,1.94e-05 ± 1.4e-05 s⁻¹

# Variants of: B1
# Test: self-cleavage kobs at 40 uM GlcN6P; higher = faster cleavage; RNA array
# Conditions: with glucosamine-6-phosphate
# Summary of the method: as §1
row,Variant,self-cleavage kobs at 40 uM GlcN6P
1,G29A A53C,2.87e-05 ± 2.8e-05 s⁻¹
2,A12U U30C A53C,3.67e-05 ± 2.3e-05 s⁻¹
3,A52G U55G,1.59e-05 ± 1.2e-05 s⁻¹
4,G44A G66A,4.12e-05 ± 2.5e-05 s⁻¹
5,A15C U56C,2.17e-05 ± 1.2e-05 s⁻¹
6,G40C A64G,2.41e-05 ± 1.6e-05 s⁻¹
7,A48U C71U,2.18e-05 ± 1.6e-05 s⁻¹
8,U47A C70G,2.77e-05 ± 1.6e-05 s⁻¹
9,U47C C70G,2.91e-05 ± 1.6e-05 s⁻¹

# Variants of: B1
# Test: self-cleavage kobs at 10000 uM GlcN6P; higher = faster cleavage; RNA array
# Conditions: with glucosamine-6-phosphate
# Summary of the method: as §1
row,Variant,self-cleavage kobs at 10000 uM GlcN6P
1,U45A U47A,0.0727 ± 0.054 s⁻¹
2,A48U U65A,1.89e-05 ± 1.3e-05 s⁻¹
3,A39U G59A,1.99e-05 ± 1e-05 s⁻¹
4,C50G C61U,0.000559 ± 0.0005 s⁻¹
5,C16A U65C,2.27e-05 ± 1.6e-05 s⁻¹
6,A15C G44U,3.44e-05 ± 2.1e-05 s⁻¹
7,A33U C68U,1.58e-05 ± 9.7e-06 s⁻¹
8,C50G C71G,0.0013 ± 0.00081 s⁻¹
9,A15C G32C A53C,2.11e-05 ± 1.4e-05 s⁻¹

# Variants of: B1
# Test: self-cleavage kobs at 2500 uM GlcN6P; higher = faster cleavage; RNA array
# Conditions: with glucosamine-6-phosphate
# Summary of the method: as §1
row,Variant,self-cleavage kobs at 2500 uM GlcN6P
1,A39U G59A,1.77e-05 ± 1.3e-05 s⁻¹
2,G29A C70U,0.00402 ± 0.0029 s⁻¹
3,G13C U45G,2.5e-05 ± 2.4e-05 s⁻¹
4,U30G C58U,3.61e-05 ± 2.3e-05 s⁻¹
5,A12U A42G,0.0983 ± 0.06 s⁻¹
6,G43A U56G,2.04e-05 ± 1.3e-05 s⁻¹
7,U47A C70G,0.00234 ± 0.0016 s⁻¹
8,A42G U69G,0.000235 ± 0.00013 s⁻¹
9,A15C G44U,3.33e-05 ± 1.7e-05 s⁻¹
10,A33U C68U,1.51e-05 ± 1.5e-05 s⁻¹
11,U30G A64C,1.86e-05 ± 1.5e-05 s⁻¹
